Experimental data as given in publication PMC8509813.
Results are given in words; binding and its absence hold for the method and conditions named. Some entries that bind do so weakly or less than the wild type.

T1: citrate synthase (UniProt P00889)
T1 sequence: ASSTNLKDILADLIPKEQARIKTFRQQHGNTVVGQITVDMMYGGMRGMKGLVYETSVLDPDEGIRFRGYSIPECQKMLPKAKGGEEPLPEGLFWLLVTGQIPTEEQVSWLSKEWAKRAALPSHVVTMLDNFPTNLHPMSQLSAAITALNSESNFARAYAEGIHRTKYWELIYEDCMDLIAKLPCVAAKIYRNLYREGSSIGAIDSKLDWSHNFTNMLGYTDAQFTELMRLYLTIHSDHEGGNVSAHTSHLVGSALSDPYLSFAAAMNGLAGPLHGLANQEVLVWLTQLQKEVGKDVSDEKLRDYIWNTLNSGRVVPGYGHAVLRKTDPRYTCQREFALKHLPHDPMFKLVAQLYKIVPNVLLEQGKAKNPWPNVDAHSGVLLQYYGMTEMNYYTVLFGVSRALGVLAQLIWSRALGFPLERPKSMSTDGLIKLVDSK


Experiments:
lysozyme = lysozyme (UniProt P00698); experiment: co-sedimentation; lysozyme (5 µM) aggregated with DTT in 0.25 mL PBS at 37 °C for 60 min with 1 or 5 µM chaperone; centrifuged at 6000 rpm for 20 min; pellet and supernatant on SDS-PAGE, band intensities; both purified
citrate synthase = molecular target: T1, citrate synthase; experiment: SEC-MALS; mixtures of chaperone and citrate synthase (chaperone-to-substrate ratio 1:2) incubated at 43 °C for 0, 40 and 80 min, then run on a TSK G5000PWXL column with UV, refractive index, MALS and quasi-elastic light scattering detectors; both purified

| Binder | binding (lysozyme) | binding (citrate synthase) |
| --- | --- | --- |
| αB-crystallin with residues 54–61 deleted (protein, UniProt P02511) MDIAIHHPWIRRPFFPFHSPSRLFDQFFGEHLLESDLFPTSTSLSPFYLRPPSDTGLSEMRLEKDRFSVNLDVKHFSPEELKVKVLGDVIEVHGKHEERQDEHGFISREFHRKYRIPADVDPLTITSSLSSDGVLTVNGPRKQVSGPERTIPITREEKPAVTAAPKK | binds | binds |
| wild-type αB-crystallin (protein, UniProt P02511 1-175) MDIAIHHPWIRRPFFPFHSPSRLFDQFFGEHLLESDLFPTSTSLSPFYLRPPSFLRAPSWFDTGLSEMRLEKDRFSVNLDVKHFSPEELKVKVLGDVIEVHGKHEERQDEHGFISREFHRKYRIPADVDPLTITSSLSSDGVLTVNGPRKQVSGPERTIPITREEKPAVTAAPKK | binds | binds weakly |
